PubChem BioAssay AID743121 – NCATS | 2013

- Assay: 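Knock-downs that sensitise breast cancer cells to camptothecin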 (primary screen)
- Cell system: MDA-MB-231 cells, a human breast cancer line
- Reagent: single siRNA against human genes, 20 nM siRNA (0.8 pmol per well)
- Time to read-out: 120 h (drug added 48 h after transfection, read 72 h later)
- Challenge: camptothecin 20 nM (about EC30) for 72 h; vehicle 0.1% DMSO in parallel plates
- Detection: 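CellTiter-Glo ATP signal, scaled to control siRNA as percent viability; sensitisation given as log2 of untreated divided by camptothecin-treated viability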
- Reading the numbers: log2 vehicle/camptothecin viability: higher = stronger sensitisation to camptothecin; viability with camptothecin and viability without drug: higher = more viable cells
- Hit rule: 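Active genes have an RSA gene-level p-value below 0.001, computed from the ratios of their separate siRNAs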
Here is an unselected part of about 26,000 deposited reagents. Over the whole deposit, 167 (0.63%) were called active. 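Calls are per gene from RSA p-values that are not deposited; an individual active-marked siRNA can sensitise only weakly.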 The numbers tell different reagents against one gene apart.

no.	gene	reagent no.	log2 vehicle/camptothecin viability	viability with camptothecin (% of control)	viability without drug (% of control)	Call
1	CYP2U1	1	-0.0487	94.1	91	inactive
2	CYP2U1	2	-0.192	55.7	48.8	inactive
3	CYP2U1	3	0.604	30.2	45.8	inactive
4	CYP2U1	4	-0.534	28	19.3	inactive
5	PTCH1	1	0.258	82.2	98.3	inactive
6	PTCH1	2	-0.0357	89	86.8	inactive
7	PTCH1	3	-0.147	38.1	34.5	inactive
8	PTCH1	4	-0.203	52.9	46	inactive
9	CYP7A1	1	0.0284	37.1	37.8	inactive
10	CYP7A1	2	-0.245	73.8	62.3	inactive
11	CYP7A1	3	-0.302	94	76.2	inactive
12	CYP7A1	4	-0.342	84.2	66.5	inactive
13	CGRRF1	1	-0.156	97.6	87.6	inactive
14	CGRRF1	2	0.246	73.3	86.9	inactive
15	CGRRF1	3	0.408	75.3	99.9	inactive
16	CGRRF1	4	-0.225	53.6	45.9	inactive
17	PRMT8	1	0.535	61.1	88.6	inactive
18	PRMT8	2	0.00517	100	100	inactive
19	PRMT8	3	-0.454	71.1	51.9	inactive
20	PRMT8	4	-0.0404	101	97.9	inactive
21	UBL3	1	-0.493	119	84.6	inactive
22	UBL3	2	-0.412	94.2	70.8	inactive
23	UBL3	3	-0.124	112	103	inactive
24	UBL3	4	-0.0555	87.8	84.5	inactive
25	RAC3	1	-0.654	29.3	18.6	inactive
26	RAC3	2	-0.221	55.2	47.4	inactive
27	RAC3	3	-0.25	52.2	43.9	inactive
28	RAC3	4	-0.439	96.2	70.9	inactive
29	GNGT1	1	-0.0726	102	96.9	inactive
30	GNGT1	2	-0.0552	57.1	55	inactive
31	GNGT1	3	-0.0297	83.4	81.7	inactive
32	GNGT1	4	-0.549	114	78.2	inactive
33	DCLK2	1	-0.262	115	95.5	inactive
34	DCLK2	2	0.69	21.4	34.5	inactive
35	DCLK2	3	-0.608	37.5	24.6	inactive
36	DCLK2	4	0.0226	52.4	53.2	inactive
37	KCNJ5	1	-0.124	47.5	43.6	inactive
38	KCNJ5	2	-0.589	110	73.1	inactive
39	KCNJ5	3	0.0143	110	111	inactive
40	SLURP1	1	-0.312	89.2	71.9	inactive
41	SLURP1	2	0.211	30.4	35.2	inactive
42	SLURP1	3	-0.188	79.4	69.7	inactive
43	SLURP1	4	-0.44	42.3	31.2	inactive
44	VSNL1	1	-0.199	61.6	53.6	inactive
45	VSNL1	2	-0.301	104	84.3	inactive
46	VSNL1	3	-0.185	95.8	84.3	inactive
47	VSNL1	4	-0.0677	101	96.7	inactive

2 of these entries, set out differently:
gene	reagent no.	log2 vehicle/camptothecin viability	viability with camptothecin (% of control)	viability without drug (% of control)	Call
UBL3	2	-0.412	94.2	70.8	inactive
UBL3	3	-0.124	112	103	inactive
